# Data as given in PubChem BioAssay AID1259308 (NCATS, 2017).
# Assay: 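Genes whose loss raises luciferase production in HEK293 cells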 (primary screen)
# Cell system: human HEK293 embryonic kidney cells stably expressing firefly luciferase (HEK-CMV-Luc2-Hygro)
# Reagent: single siRNA against human genes, 0.8 pmol siRNA per well
# Duration: 72 h
# Measurement: 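Reporter luminescence and viable-cell signal on separate replicate plates, given as percent of non-targeting control and median/MAD z-scores, plus per-cell luciferase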
# Direction: total luciferase, z-score and total luciferase, % of control: higher = more reporter protein produced; luciferase per cell, z-score: higher = more reporter output per viable cell; viable cells, % of control: higher = more viable cells
# Hit rule: 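Active when the median/MAD z-score for overall luciferase is greater than 3; a gene was taken forward for validation with new siRNAs if at least two of its three siRNAs passed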
# Meaning of the calls: active = raised luciferase; inactive = no rise
# In all, the deposit lists about 59,000 reagents; shown is a part drawn at random. About 1,510 of all reagents (2.6%) were called active. 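Calls use total luciferase alone and ignore viability, so some active siRNAs may act by altering cell number.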 Reagents against one gene are numbered here. Reagent sequences are not shown.
gene knocked down,reagent,"total luciferase, z-score","total luciferase, % of control","luciferase per cell, z-score","viable cells, % of control",Outcome
ABHD14B,1,0.361,89.1,-0.362,109,inactive
ABHD14B,2,-0.408,73.8,-0.447,92.7,inactive
ABHD14B,3,-0.599,70,-0.375,86.3,inactive
OR8H1,1,-1.26,56.8,-1.39,91.6,inactive
OR8H1,2,-0.386,74.2,-0.282,89.3,inactive
OR8H1,3,-0.0903,80.1,0.25,83.8,inactive
RPL3,1,-1.55,51.1,1.56,37.9,inactive
RPL3,2,-2.62,29.7,-0.673,39.6,inactive
RPL3,3,-2.67,28.8,-2.3,58.9,inactive
RBM48,1,-0.492,72.1,-0.356,88.5,inactive
RBM48,2,0.509,92,0.209,97.3,inactive
RBM48,3,0.837,98.5,0.659,92.6,inactive
SHROOM1,1,-0.282,76.3,-0.794,105,inactive
SHROOM1,2,0.714,96.1,1.1,80.4,inactive
SHROOM1,3,-0.299,75.9,0.0272,84.3,inactive
GALNT11,1,1.26,107,1.87,73.1,inactive
GALNT11,2,-0.012,81.6,0.262,85.1,inactive
GALNT11,3,-0.428,73.4,-0.585,95.6,inactive
LOC401589,1,0.503,91.9,0.0218,102,inactive
LOC401589,2,-0.0455,81,0.0778,88.7,inactive
LOC401589,3,1.14,104,0.793,94.7,inactive
KCNH2,1,-0.191,78.1,0.123,84.5,inactive
KCNH2,2,-3.46,13.1,-4.21,44.3,inactive
KCNH2,3,-1.34,55.2,-1.69,96.2,inactive
ANXA2,1,1.55,113,0.867,100,inactive
ANXA2,2,-1.59,50.2,-1.22,77.4,inactive
ANXA2,3,1.83,118,1.21,96.1,inactive
CPEB2,1,-0.54,71.1,-1.01,104,inactive
CPEB2,2,-1.35,55,-1.22,84.7,inactive
CPEB2,3,1.52,112,0.75,103,inactive
NOTCH3,1,-0.0958,80,1.22,64.9,inactive
NOTCH3,2,1.1,104,0.192,110,inactive
NOTCH3,3,-0.915,63.7,0.0236,70.7,inactive
CXCL3,1,-0.0884,80.1,-0.446,101,inactive
CXCL3,2,0.26,87.1,-0.209,103,inactive
CXCL3,3,0.0113,82.1,-0.193,96.5,inactive
FAM168A,1,0.219,86.2,0.0439,95.3,inactive
FAM168A,2,1.78,117,1.5,88.2,inactive
FAM168A,3,1.18,105,0.508,103,inactive
SMIM26,1,-0.224,77.4,-0.521,99.2,inactive
SMIM26,2,1.59,114,1.26,91.1,inactive
SMIM26,3,-0.384,74.3,-0.286,89.5,inactive
CRP,1,-1.14,59.1,-1.6,101,inactive
CRP,2,0.137,84.6,-0.115,97.5,inactive
CRP,3,0.283,87.5,0.771,79.8,inactive
CLCC1,1,0.109,84.1,0.518,82,inactive
CLCC1,2,0.279,87.4,0.122,94.6,inactive
CLCC1,3,-0.848,65,-0.184,76.3,inactive
MARCHF8,1,-1.2,57.9,-1.66,100,inactive
MARCHF8,2,-0.288,76.2,-0.36,93.6,inactive
MARCHF8,3,0.02,82.3,-0.217,97.4,inactive
C8orf44,1,-0.187,78.2,-0.12,90.1,inactive
C8orf44,2,0.149,84.9,-0.588,111,inactive
C8orf44,3,0.14,84.7,-0.416,106,inactive
HNRNPA3,1,0.227,86.4,-0.257,103,inactive
HNRNPA3,2,1.14,105,0.668,98,inactive
HNRNPA3,3,2.84,138,1.63,101,inactive
PROKR2,1,-0.183,78.2,0.189,83.2,inactive
PROKR2,2,3.73,156,2.05,102,active
PROKR2,3,0.0896,83.7,-0.224,99.2,inactive
CHST14,1,0.842,98.6,0.347,101,inactive
CHST14,2,0.238,86.6,-0.948,124,inactive
CHST14,3,-0.499,72,-0.423,89.9,inactive
IDO2,1,2.59,133,1.62,97.2,inactive
IDO2,2,-0.571,70.5,-0.39,87.4,inactive
IDO2,3,-0.502,71.9,0.0244,79.8,inactive
KCTD4,1,0.515,92.1,1.15,76.1,inactive
KCTD4,2,-0.535,71.2,-0.931,102,inactive
KCTD4,3,-0.401,73.9,-0.253,88.3,inactive
MAGED4B,1,1.64,114,1.13,95,inactive
MAGED4B,2,0.233,86.5,-0.204,102,inactive
MAGED4B,3,-0.0103,81.7,-0.0681,92.9,inactive
RNF215,1,0.256,87,1.05,73.6,inactive
RNF215,2,3.74,156,2.55,89.2,active
RNF215,3,-0.991,62.2,-0.97,89.7,inactive

9 entries from above, reduced to “total luciferase, z-score”:
RPL3 #1 = -1.55
RPL3 #2 = -2.62
RPL3 #3 = -2.67
RBM48 #1 = -0.492
RBM48 #2 = 0.509
RBM48 #3 = 0.837
SHROOM1 #1 = -0.282
SHROOM1 #2 = 0.714
SHROOM1 #3 = -0.299
